The other results are listed elsewhere or left out.
Molecular target: T1, OsSMF1 (Oryza sativa, UniProt Q6ZLB0 1-436)
T1 sequence: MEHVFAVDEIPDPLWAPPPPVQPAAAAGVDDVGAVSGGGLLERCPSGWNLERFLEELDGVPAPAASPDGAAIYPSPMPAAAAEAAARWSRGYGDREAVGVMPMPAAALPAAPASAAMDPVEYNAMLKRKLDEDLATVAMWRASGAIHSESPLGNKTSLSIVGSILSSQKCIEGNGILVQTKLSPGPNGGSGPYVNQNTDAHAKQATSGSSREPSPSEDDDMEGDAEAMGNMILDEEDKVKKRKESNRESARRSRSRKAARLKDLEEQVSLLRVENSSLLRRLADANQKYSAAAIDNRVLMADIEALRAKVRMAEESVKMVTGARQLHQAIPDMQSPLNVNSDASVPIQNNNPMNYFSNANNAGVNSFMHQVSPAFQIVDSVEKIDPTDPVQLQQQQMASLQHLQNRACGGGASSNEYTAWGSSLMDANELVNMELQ
Experiment: protein-binding microarray (RPBM); PBS, 2% BSA, 51.3 ng/ul salmon testes DNA, 50 uM zinc acetate, 200 nM TF, 25 C, 1 h; high values mean tight binding
Settings: protein: recombinant; tags: N-terminal polyhistidine and DsRed monomer fusion (pET32a); chain copies: 2; label: CyDye5-dUTP incorporated in the synthesized complementary strand; 3' TTTTT single-stranded linker to array surface; dsDNA, one strand shown
Outline: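 Transcription factors were made in E. coli BL21-CodonPlus as N-terminal fusions to a polyhistidine tag and DsRed, then purified on Ni–NTA. After primer extension with Cy5-dUTP and blocking with 2% BSA, a custom Agilent array was exposed for 1 h at 25 °C to 200 nM protein in PBS, 2% BSA, salmon testes DNA and 50 µM zinc acetate. Washed arrays were scanned on an Axon 4000B, and the binding signal is per-feature fluorescence intensity in arbitrary units.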

| Sequence | binding signal |
| --- | --- |
| ATAGGTTTCCTCTCCACCTCCAGCCCGGACTCTCCCGATCCGGAGTCACCTAGTGCAG | 3150 fluorescence intensity (a.u.) |
| GCGGGTCCCCTAAGTGCCACATAGGATGAAACCGCTATCACGGAGTCACCTAGTGCAG | 4340 fluorescence intensity (a.u.) |
| TTGAAATGTTTAAGTTGTTTTAAAATTATTCTATATATTTCGGAGTCACCTAGTGCAG | 37800 fluorescence intensity (a.u.) |
| TATACGTTAATACATATATTGTTTTACGTGTCGAAGAGGACGGAGTCACCTAGTGCAG | 4040 fluorescence intensity (a.u.) |
| AATGTTTGGGTTCGAATTTAGTGGGTGGGTTTGGAGTTTGCGGAGTCACCTAGTGCAG | 4670 fluorescence intensity (a.u.) |
| CAGAAGTTTCAAGAAAAGAATGACTAGGTGAAGCCATCACCGGAGTCACCTAGTGCAG | 3220 fluorescence intensity (a.u.) |
| CCACCGGCCACCTCGTCACCACCTCCCCGCGCCAGCAGCCCGGAGTCACCTAGTGCAG | 6030 fluorescence intensity (a.u.) |
| AATCCAGTCCAGGACACGACACCCTCCCTACTCTCTCCACCGGAGTCACCTAGTGCAG | 3240 fluorescence intensity (a.u.) |
| GCCAAAAGGCAAACGACAGCGTTGTTTGTTGCCGCGAGAACGGAGTCACCTAGTGCAG | 3600 fluorescence intensity (a.u.) |
| GCCTGGTACCTGGTATCTGGGTATCATGGTTAGGTGTCAGCGGAGTCACCTAGTGCAG | 4700 fluorescence intensity (a.u.) |
| CCGCCACCGCGTCGCCCGTCGCCGGCCGTAGACGCCCTCCCGGAGTCACCTAGTGCAG | 3250 fluorescence intensity (a.u.) |
| ACCTGTTTCGTTCGTCCACGCCAGCGCCAACCGGACATGACGGAGTCACCTAGTGCAG | 5610 fluorescence intensity (a.u.) |
| GGAAGGCTGATCTGAAACTGGCGTGGCACCAGCCGTGTTTCGGAGTCACCTAGTGCAG | 7960 fluorescence intensity (a.u.) |
| ACTACTTATTGTTCTTCAAACTACATGTCAGTAACTACGTCGGAGTCACCTAGTGCAG | 24400 fluorescence intensity (a.u.) |
| CTGTGCGGGGCGGTGCTCCAGGACAGGCGGCGGCGTCAGGCGGAGTCACCTAGTGCAG | 3260 fluorescence intensity (a.u.) |
| GCTGGCACCGTCGCAGGCACGTGGACTGAACACCGGGCCCCGGAGTCACCTAGTGCAG | 4660 fluorescence intensity (a.u.) |
| ACGAATTGGGAGGGGTAAAATGGCATAATGGTAATTAATACGGAGTCACCTAGTGCAG | 3200 fluorescence intensity (a.u.) |
| GCCCCATCATCGGCCATCCGAGTCAACCGAGTGAGCCACCCGGAGTCACCTAGTGCAG | 4920 fluorescence intensity (a.u.) |
| TAATTTGGACCAGGCAGTGACGTTTGCAGTAATCGCAATCCGGAGTCACCTAGTGCAG | 6220 fluorescence intensity (a.u.) |
| GAGGGATCGTGTCCGCATCAACCGGGCCAACGTGCCTATGCGGAGTCACCTAGTGCAG | 3430 fluorescence intensity (a.u.) |
| CCCGAATAGGTTGAGGGTAACCAAGACATTGAGACTTGAGCGGAGTCACCTAGTGCAG | 3290 fluorescence intensity (a.u.) |
| GAGGGCAGCCTCCGGATGCCGTCGTCACCGACATGAGGTACGGAGTCACCTAGTGCAG | 3230 fluorescence intensity (a.u.) |
| GAGGCATACTGGCGAGTGGCGACTACAGAGATGGTGGCAACGGAGTCACCTAGTGCAG | 22000 fluorescence intensity (a.u.) |
| TACGAAATAGAAATGCTGACAGAACGCGTGTAGCGTTTGACGGAGTCACCTAGTGCAG | 4810 fluorescence intensity (a.u.) |
| CAATACAACTAACCAAACAGCTACATATGTATTCTTCTGGCGGAGTCACCTAGTGCAG | 4100 fluorescence intensity (a.u.) |
| CTGATTTATGATAGGACATGACACACTACCTCTACATGTTCGGAGTCACCTAGTGCAG | 4490 fluorescence intensity (a.u.) |
| CTCGAAACGGGCTAAGTTAATGGGCTTTCGGCCCATGTGGCGGAGTCACCTAGTGCAG | 3330 fluorescence intensity (a.u.) |

In a second layout: results already given
Sequence	binding signal
GCGGGTCCCCTAAGTGCCACATAGGATGAAACCGCTATCACGGAGTCACCTAGTGCAG	4340 fluorescence intensity (a.u.)
TTGAAATGTTTAAGTTGTTTTAAAATTATTCTATATATTTCGGAGTCACCTAGTGCAG	37800 fluorescence intensity (a.u.)
AATGTTTGGGTTCGAATTTAGTGGGTGGGTTTGGAGTTTGCGGAGTCACCTAGTGCAG	4670 fluorescence intensity (a.u.)
CCACCGGCCACCTCGTCACCACCTCCCCGCGCCAGCAGCCCGGAGTCACCTAGTGCAG	6030 fluorescence intensity (a.u.)
GCCTGGTACCTGGTATCTGGGTATCATGGTTAGGTGTCAGCGGAGTCACCTAGTGCAG	4700 fluorescence intensity (a.u.)
GCTGGCACCGTCGCAGGCACGTGGACTGAACACCGGGCCCCGGAGTCACCTAGTGCAG	4660 fluorescence intensity (a.u.)
ACGAATTGGGAGGGGTAAAATGGCATAATGGTAATTAATACGGAGTCACCTAGTGCAG	3200 fluorescence intensity (a.u.)
GCCCCATCATCGGCCATCCGAGTCAACCGAGTGAGCCACCCGGAGTCACCTAGTGCAG	4920 fluorescence intensity (a.u.)
GAGGGCAGCCTCCGGATGCCGTCGTCACCGACATGAGGTACGGAGTCACCTAGTGCAG	3230 fluorescence intensity (a.u.)
GAGGCATACTGGCGAGTGGCGACTACAGAGATGGTGGCAACGGAGTCACCTAGTGCAG	22000 fluorescence intensity (a.u.)
TACGAAATAGAAATGCTGACAGAACGCGTGTAGCGTTTGACGGAGTCACCTAGTGCAG	4810 fluorescence intensity (a.u.)
CTGATTTATGATAGGACATGACACACTACCTCTACATGTTCGGAGTCACCTAGTGCAG	4490 fluorescence intensity (a.u.)

Continued:

| Sequence | binding signal |
| --- | --- |
| GCATAGGAATTACGGTGTGACAAATGTTTACCACTGTTACCGGAGTCACCTAGTGCAG | 3150 fluorescence intensity (a.u.) |
| CGCTTTCCTTCCTCCTCTCCACCTCAGCCGCCGGCCACGACGGAGTCACCTAGTGCAG | 5190 fluorescence intensity (a.u.) |
| GTTAAGGAACAAGGACATATGCCACATCATTTTGGCCGAACGGAGTCACCTAGTGCAG | 7640 fluorescence intensity (a.u.) |
| GTAAAGCCTCGATATATCGATCGATTCCAGCTGTGGCACCCGGAGTCACCTAGTGCAG | 3620 fluorescence intensity (a.u.) |
| ATATGCCCTTAAATGATGCTGACGATGTAAATGAGCCTCTCGGAGTCACCTAGTGCAG | 7850 fluorescence intensity (a.u.) |
| CATTGAATTTGACGCCGCCGTTGCTCATGTACCTCGATGCCGGAGTCACCTAGTGCAG | 3170 fluorescence intensity (a.u.) |
| AATGTCACATTGTGACGTGCTTACACAATGCCACCTAATCCGGAGTCACCTAGTGCAG | 7300 fluorescence intensity (a.u.) |
| ATTTGTCGGTCCACCTCTATTTCACGCCAACTATTTTATGCGGAGTCACCTAGTGCAG | 3180 fluorescence intensity (a.u.) |
| TTATTGTAGCACCACATTGTCAAATCATGGCGCAAGTAGGCGGAGTCACCTAGTGCAG | 23000 fluorescence intensity (a.u.) |
| TCAAACTGCTGACGTACGCACGCCGTGAGACGCCGCCGCACGGAGTCACCTAGTGCAG | 15400 fluorescence intensity (a.u.) |
| ACAATGAGATTGTGTCACTGTCAGTCTGTCACTGATCACTCGGAGTCACCTAGTGCAG | 3640 fluorescence intensity (a.u.) |
| ATTCTGTGGTGGTAAAGACGTTAAACGTGTATGACTCCACCGGAGTCACCTAGTGCAG | 3500 fluorescence intensity (a.u.) |
| TCCACATGCTAATTTGTGGTGTCAGATACCTGAATACTCCCGGAGTCACCTAGTGCAG | 41400 fluorescence intensity (a.u.) |
| CGCCGCCGCCGCCGTGGCGCCGCCCTCCTCCTCTCCCGCCCGGAGTCACCTAGTGCAG | 5660 fluorescence intensity (a.u.) |
| AAACTGAAATGGGCCCACCCACCTCTCGTCTGCTACGTGGCGGAGTCACCTAGTGCAG | 5310 fluorescence intensity (a.u.) |
| CTGACGAGCAGAACATTAGCTATCCTATCCAGAATAGTTTCGGAGTCACCTAGTGCAG | 47400 fluorescence intensity (a.u.) |
| ACTCTTCATTCTTTTAATCTCATCTAGCTAGGAGATACACCGGAGTCACCTAGTGCAG | 13000 fluorescence intensity (a.u.) |
| TGACTTCACCGCACCGCGCCAGAGAGGGGAGGTGTCACTTCGGAGTCACCTAGTGCAG | 3760 fluorescence intensity (a.u.) |
| TAGCTAGCATGAATATGCAGCTGCCTGCCTGCAGCCACGTCGGAGTCACCTAGTGCAG | 5900 fluorescence intensity (a.u.) |
| CAGTCGTCAGGCAGCACACAAGCGAGAAAGGTTTGCAAACCGGAGTCACCTAGTGCAG | 31700 fluorescence intensity (a.u.) |
| TATGTTATCGTTACCCAACTTAATCGCACAACATCGCATTCGGAGTCACCTAGTGCAG | 3340 fluorescence intensity (a.u.) |
| CTTTGCCCGCCGATGATGCGTGCGGTGTCCAATTGTTCTCCGGAGTCACCTAGTGCAG | 3260 fluorescence intensity (a.u.) |
| CAAGCAATGCAAGGCAAGAGGTAATTGGCCGTGGAATCCACGGAGTCACCTAGTGCAG | 4720 fluorescence intensity (a.u.) |
| ACGCGGAGGCATCCACGTCGCCCGCGAGCGCTGGGAGGCGCGGAGTCACCTAGTGCAG | 4760 fluorescence intensity (a.u.) |
| ACATAATTGTATTATGCAGAACCAAAGCAGGCCACGTGAGCGGAGTCACCTAGTGCAG | 5470 fluorescence intensity (a.u.) |
| TATAAACATATGAGAGCTGACATGGAAAGTTACAGGGGCTCGGAGTCACCTAGTGCAG | 5410 fluorescence intensity (a.u.) |
| TTATATACTCCCTCTTTCCACGTAAGTTACATTTATTACTCGGAGTCACCTAGTGCAG | 7340 fluorescence intensity (a.u.) |
